Data reported in PubChem BioAssay AID504834 (National Center for Advancing Translational Sciences (NCATS), 2011).
Out of some 320,000 compounds screened, about 22,000 (6.9%) were called active. The inconclusive results got no clear call from the source; some entries with a clear call stand among them for comparison. Calls come from the whole dose curve; as a rule, active = well fitted inhibition curve with a large enough effect; inconclusive = small, poorly fitted or top-dose-only effect, or another doubt; inactive = no such curve, though single readings can be large or run the other way. Where the call is inconclusive, the potency comes from a doubtful curve fit.

assay: Primary qHTS for delayed death inhibitors of the malarial parasite plastid, 96 hour incubation; settings: P. falciparum luciferase reporter growth; series mostly up to 28.7 µM
Method in brief: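 Two parasite generations (96 h, 37 C, 5% CO2) of compound exposure in infected erythrocytes (0.05% parasitemia, 2% hematocrit). Luciferase-reporter P. falciparum; decreased luminescence indicates inhibited growth, aimed at apicoplast-acting delayed death.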
% is set by controls: 0 for no effect and ±100 for the full control effect; potency is the fitted concentration of half-maximal effect.

Row | Structure (SMILES) | Potency | activity change, negative = inhibition
1 | COc1ccc2nc(SCCN(C)C)[nH]c2c1 | inactive | –
2 | CC(C)(C)CN1CCC(n2nccc2NC(=O)c2ccccc2Cl)CC1 | inactive | –
3 | CC(=O)Nc1cccc([N+](=O)[O-])c1 | inactive | –
4 | CCOC(=O)Cc1c(C)c2c(O)cc(O)cc2oc1=O | inconclusive: 2.33 µM [inhibitor, single point] | –
5 | COc1ccc(OC)c(/C=C/C(=O)Nc2cccc(S(=O)(=O)NC3=NCCCCC3)c2)c1 | inconclusive: 13.1 µM [inhibitor, partial curve] | –
6 | Cc1ccc(C(=O)OCC(=O)N(CCc2ccccc2)Cc2ccccc2)cc1S(=O)(=O)N1CCOCC1 | inconclusive: 18.5 µM [inhibitor, single point] | –
7 | O=C(Cn1[nH]c(=O)c2ccccc2c1=O)Nc1cccc(-c2nnc3n2CCCCC3)c1 | inconclusive: 1.65 µM [inhibitor, partial curve, poor fit] | –
8 | CCOC(=O)N1CCN(Cc2nc3ccc([N+](=O)[O-])cc3c(=O)n2-c2cccc(OC)c2)CC1 | active: 2.33 µM | –
9 | CC(C)NS(=O)(=O)c1cc(C(=O)O)ccc1Cl | inconclusive: 9.28 µM [inhibitor, partial curve, poor fit] | –
10 | CCN(C(=O)CCN1C(=O)c2ccccc2S1(=O)=O)c1ccccc1 | inactive | –
11 | CS(=O)(=O)N(CC(N)=O)c1cccc(Br)c1 | active: 3.7 µM | –
12 | CCOc1ccccc1NC(=O)NCc1ccccc1 | inconclusive: 4.15 µM [inhibitor, partial curve, poor fit] | –
13 | Nc1ccc(C(=O)Nc2ccc(NC(=O)c3ccco3)c(O)c2)cc1 | inactive | –
14 | CCN1CCN(S(=O)(=O)c2ccc(S(=O)(=O)N(CC)Cc3ccccc3)cc2)CC1 | inconclusive: 9.28 µM [inhibitor, partial curve, poor fit] | –
15 | CCc1ccc(CN2CCC(n3nccc3NC(=O)C3CCCC3)CC2)cc1 | inconclusive: 10.4 µM [inhibitor, single point] | –
16 | COC(=O)c1ccc2c(c1)sc(=NC(=O)CCS(=O)(=O)c1ccccc1)n2C | inconclusive: 18.5 µM [inhibitor, partial curve, poor fit] | –
17 | O=C(COC(=O)CCOc1ccccc1)Nc1ccc(Cl)cn1 | – | inactive: -7.36% [at 5.75 µM]
18 | CCN(CC)CCn1c(N)c(S(=O)(=O)c2ccccc2)c2nc3ccccc3nc21 | inconclusive: 18.5 µM [inhibitor, partial curve, poor fit] | –
19 | CC1(C(=O)N/N=C/c2ccc3c(c2)OCO3)CC1(Br)Br (centres undefined) | active: 5.22 µM | –
20 | Cc1ccc(S(=O)(=O)N2CCOCC2)cc1C(=O)N1CCN(Cc2ccccc2)CC1 | inactive | –
21 | Cc1sc(-n2c(C)cc(C=O)c2C)c(C(=O)O)c1C | inconclusive: 18.5 µM [inhibitor, single point] | –
22 | COc1ccc(Cc2nnc(NC(=O)c3cccc(C)c3)s2)cc1 | inconclusive: 2.08 µM [inhibitor, full curve, poor fit] | –

Row | Structure (SMILES) | Potency | activity change, negative = inhibition
23 | CCOc1ccc(N(C(=O)c2cc3ccccc3oc2=O)C2C=CS(=O)(=O)C2)cc1 (centres undefined) | inconclusive: 11.7 µM [inhibitor, single point] | –
24 | COc1cc2c(cc1OC)C(c1ccc(C(F)(F)F)cc1)CC(=O)N2 (centres undefined) | inconclusive: 13.1 µM [inhibitor, partial curve, poor fit] | –
25 | CCOc1ccccc1N(C)S(=O)(=O)c1ccc2[nH]cc(C(=O)N(CCOC)CCOC)c(=O)c2c1 | inconclusive: 1.85 µM [inhibitor, partial curve] | –
26 | CSC(=S)N/N=C/c1ccc(N(C)C)cc1 | inconclusive: 3.7 µM [inhibitor, single point] | –
27 | CC(C)(C)c1ccc(S(=O)(=O)Nc2ccc(Cc3ccncc3)cc2)cc1 | inconclusive: 10.4 µM [inhibitor, single point] | –
28 | C=C(C)CNC(=S)NNC(=O)c1ccc(Br)cc1 | inconclusive: 11.7 µM [inhibitor, single point] | –
29 | CCOc1ccccc1N(CC)C(=O)c1ccc2c(=O)n3c(nc2c1)CCCCC3 | active: 11.7 µM | –
30 | COc1ccc(NC(=S)N(CCCN2CCOCC2)C(C)c2cc3cccc(OC)c3o2)cc1 (centres undefined) | inconclusive: 18.5 µM [inhibitor, single point] | –
32 | COc1cccc(/C=N\NC(=O)C2=NNC(=O)C2C)c1O (centres undefined) | active: 4.15 µM | –
33 | CN(c1nccc(=O)[nH]1)C1CCN(c2nc3ccccc3n2Cc2ccc(F)cc2)CC1 | inactive | –
34 | CCOC(=O)C1CCN(CC(=O)Nc2c(C(=O)OC)[nH]c3ccc(Cl)cc23)CC1 | inconclusive: 13.1 µM [inhibitor, partial curve, poor fit] | –
35 | Cc1ccc(S(=O)(=O)N(C)CC(=O)Nc2cccnc2)cc1 | inactive | –
36 | CSc1ccc(/C=C(/NC(=O)c2ccco2)C(=O)NCc2ccco2)cc1 | inconclusive: 11.7 µM [inhibitor, single point] | –
37 | Cc1ccc(-c2nnc(Nc3cccc(O)c3)c3ccccc23)cc1S(=O)(=O)NCCO | inconclusive: 18.5 µM [inhibitor, single point] | –
38 | Cc1sc2nc(SCC(=O)C(C)(C)C)n(Cc3ccco3)c(=O)c2c1C | active: 10.4 µM | –
39 | OC(CN1CCN(c2cccc(C(F)(F)F)c2)CC1)c1c[nH]c2ccccc12 (centres undefined) | inconclusive: 0.185 µM [inhibitor, full curve, poor fit] | –
40 | N=c1occ(C(=O)c2cc(F)ccc2O)cc1C(=O)NC1CCCCC1 | inconclusive: 4.65 µM [inhibitor, full curve, poor fit] | –
41 | Brc1ccc(OCCN2CCOCC2)cc1 | inconclusive: 18.5 µM [inhibitor, single point] | –
42 | O=C(c1ccc(-c2ccccc2)cc1)N1CCN(c2ncccn2)CC1 | active: 10.4 µM | –
43 | COC(=O)/C=C/c1ccc(OC(=O)c2ccncc2)cc1 | active: 13.1 µM | –
44 | Cc1ccc2c(c1)C(c1ccncc1)=NNC(c1cccnc1)=N2 | inconclusive: 10.4 µM [inhibitor, single point] | –

Given as a markdown table: part of the list above.

| Row | Structure (SMILES) | Potency | activity change, negative = inhibition |
| --- | --- | --- | --- |
| 18 | CCN(CC)CCn1c(N)c(S(=O)(=O)c2ccccc2)c2nc3ccccc3nc21 | inconclusive: 18.5 µM [inhibitor, partial curve, poor fit] | – |
| 19 | CC1(C(=O)N/N=C/c2ccc3c(c2)OCO3)CC1(Br)Br (centres undefined) | active: 5.22 µM | – |
| 20 | Cc1ccc(S(=O)(=O)N2CCOCC2)cc1C(=O)N1CCN(Cc2ccccc2)CC1 | inactive | – |
